Data source: PubChem BioAssay AID1224830 (NIAID, 2016)
Here is a random part of about 18,000 reagents. In the full data, about 2,900 (16%) are marked active. 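Calls are made per well; low scores hint the gene aids the LPS response, high scores that it dampens it.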 Repeated entries: four replicate wells of each siRNA pool.

Aim: 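Regulators of TLR4 signalling towards TNF-alpha in macrophage-like cells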 (primary screen)
Cells: human THP-1 monocytic leukaemia cells, TNF dual-luciferase reporter clone, PMA-differentiated to macrophage-like cells
Reagents: siRNA pool against human genes, 50 nM
Timing: LPS for 4 h, given about 3 days after siRNA transfection
Treatment: bacterial LPS (TLR4 ligand), 10 ng/ml
Read-out: 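TNF firefly reporter luminescence divided by renilla, normalised to the plate median, then turned into a robust z-score for each replicate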
Direction: TNF reporter robust z-score: higher = stronger TNF reporter response to LPS
Active means: 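Each well counts as active if its z-score is over 2.8 or under -1.5; controls are left without a call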

| gene knocked down | TNF reporter robust z-score | Outcome |
| --- | --- | --- |
| DNASE1 (deoxyribonuclease 1) | 5.5 | active |
| DNASE1 (deoxyribonuclease 1) | 1.68 | inactive |
| DNASE1 (deoxyribonuclease 1) | 0.7 | inactive |
| DNASE1 (deoxyribonuclease 1) | 7.7 | active |
| SLC27A3 | 1.14 | inactive |
| SLC27A3 | 1.32 | inactive |
| SLC27A3 | -0.38 | inactive |
| SLC27A3 | 1.06 | inactive |
| HSPB1 (heat shock protein family B (small) member 1) | 1.33 | inactive |
| HSPB1 (heat shock protein family B (small) member 1) | 2.58 | inactive |
| HSPB1 (heat shock protein family B (small) member 1) | 1.6 | inactive |
| HSPB1 (heat shock protein family B (small) member 1) | 2.02 | inactive |
| WBP1 (WW domain binding protein 1) | 0.24 | inactive |
| WBP1 (WW domain binding protein 1) | -0.4 | inactive |
| WBP1 (WW domain binding protein 1) | 1.14 | inactive |
| WBP1 (WW domain binding protein 1) | 0.88 | inactive |
| ATP8A2 (ATPase phospholipid transporting 8A2) | 0.18 | inactive |
| ATP8A2 (ATPase phospholipid transporting 8A2) | -0.46 | inactive |
| ATP8A2 (ATPase phospholipid transporting 8A2) | 1.14 | inactive |
| ATP8A2 (ATPase phospholipid transporting 8A2) | 0 | inactive |
| CEP290 (centrosomal protein 290) | -0.22 | inactive |
| CEP290 (centrosomal protein 290) | -0.5 | inactive |
| CEP290 (centrosomal protein 290) | -0.11 | inactive |
| CEP290 (centrosomal protein 290) | 0.8 | inactive |
| ZSWIM3 (zinc finger SWIM-type containing 3) | 0.02 | inactive |
| ZSWIM3 (zinc finger SWIM-type containing 3) | -0.21 | inactive |
| ZSWIM3 (zinc finger SWIM-type containing 3) | 0.19 | inactive |
| ZSWIM3 (zinc finger SWIM-type containing 3) | -0.03 | inactive |
| ZFY (zinc finger protein Y-linked) | 0.93 | inactive |
| ZFY (zinc finger protein Y-linked) | 2.2 | inactive |
| ZFY (zinc finger protein Y-linked) | 1.18 | inactive |
| ZFY (zinc finger protein Y-linked) | 2.1 | inactive |
| NDUFS3 (NADH:ubiquinone oxidoreductase core subunit S3) | 0.55 | inactive |
| NDUFS3 (NADH:ubiquinone oxidoreductase core subunit S3) | 0.78 | inactive |
| NDUFS3 (NADH:ubiquinone oxidoreductase core subunit S3) | 0.75 | inactive |
| NDUFS3 (NADH:ubiquinone oxidoreductase core subunit S3) | 0.91 | inactive |
| CHRM4 (cholinergic receptor muscarinic 4) | 1.42 | inactive |
| CHRM4 (cholinergic receptor muscarinic 4) | 0.21 | inactive |
| CHRM4 (cholinergic receptor muscarinic 4) | 0.45 | inactive |
| CHRM4 (cholinergic receptor muscarinic 4) | 0.48 | inactive |
| CPLX4 (complexin 4) | -0.37 | inactive |
| CPLX4 (complexin 4) | -0.8 | inactive |
| CPLX4 (complexin 4) | -0.77 | inactive |
| CPLX4 (complexin 4) | -1.31 | inactive |

9 entries from above, reformatted:
gene knocked down	TNF reporter robust z-score	Outcome
CEP290 (centrosomal protein 290)	0.8	inactive
ZSWIM3 (zinc finger SWIM-type containing 3)	0.02	inactive
ZSWIM3 (zinc finger SWIM-type containing 3)	-0.21	inactive
ZSWIM3 (zinc finger SWIM-type containing 3)	0.19	inactive
ZSWIM3 (zinc finger SWIM-type containing 3)	-0.03	inactive
ZFY (zinc finger protein Y-linked)	0.93	inactive
ZFY (zinc finger protein Y-linked)	2.2	inactive
ZFY (zinc finger protein Y-linked)	1.18	inactive
ZFY (zinc finger protein Y-linked)	2.1	inactive

Additional results follow:
| gene knocked down | TNF reporter robust z-score | Outcome |
| --- | --- | --- |
| BABAM2 (BRISC and BRCA1 A complex member 2) | -0.63 | inactive |
| BABAM2 (BRISC and BRCA1 A complex member 2) | 0.17 | inactive |
| BABAM2 (BRISC and BRCA1 A complex member 2) | -0.59 | inactive |
| BABAM2 (BRISC and BRCA1 A complex member 2) | -0.07 | inactive |
| UCN (urocortin) | 2.01 | inactive |
| UCN (urocortin) | 1.86 | inactive |
| UCN (urocortin) | -0.79 | inactive |
| UCN (urocortin) | -0.68 | inactive |
| CHCHD6 (coiled-coil-helix-coiled-coil-helix domain containing 6) | 0.76 | inactive |
| CHCHD6 (coiled-coil-helix-coiled-coil-helix domain containing 6) | 1.88 | inactive |
| CHCHD6 (coiled-coil-helix-coiled-coil-helix domain containing 6) | 0.23 | inactive |
| CHCHD6 (coiled-coil-helix-coiled-coil-helix domain containing 6) | 0.4 | inactive |
| OSBP2 (oxysterol binding protein 2) | -0.98 | inactive |
| OSBP2 (oxysterol binding protein 2) | -1.09 | inactive |
| OSBP2 (oxysterol binding protein 2) | -0.71 | inactive |
| OSBP2 (oxysterol binding protein 2) | -1.12 | inactive |
| PLXNA1 (plexin A1) | -1.34 | inactive |
| PLXNA1 (plexin A1) | -1.28 | inactive |
| PLXNA1 (plexin A1) | -1.89 | active |
| PLXNA1 (plexin A1) | -1.38 | inactive |
| SYNGR3 (synaptogyrin 3) | 0.25 | inactive |
| SYNGR3 (synaptogyrin 3) | -0.43 | inactive |
| SYNGR3 (synaptogyrin 3) | 0.4 | inactive |
| SYNGR3 (synaptogyrin 3) | 0.09 | inactive |
| COPB1 (coat protein complex I subunit beta 1) | -1.76 | active |
| COPB1 (coat protein complex I subunit beta 1) | -1.88 | active |
| COPB1 (coat protein complex I subunit beta 1) | -2.06 | active |
| COPB1 (coat protein complex I subunit beta 1) | -2.04 | active |
| AASS (aminoadipate-semialdehyde synthase) | -0.7 | inactive |
| AASS (aminoadipate-semialdehyde synthase) | -0.53 | inactive |
| AASS (aminoadipate-semialdehyde synthase) | -1.13 | inactive |
| AASS (aminoadipate-semialdehyde synthase) | 0.02 | inactive |
